Results on 37 molecules are retold here after PubChem BioAssay AID2685 (National Center for Advancing Translational Sciences (NCATS), 2010).

The other results are listed elsewhere or left out. Further columns of the screen follow, without active or inactive calls. The list favours compounds with an active or inconclusive main result. Potencies come from curve fits of mixed quality, noted in brackets.

This assay in a line: qHTS Assay for Lipid Storage Modulators in Drosophila S3 Cells.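 On cell number change: cells counted by Cell Tracker Red CMTPX staining in the red channel.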 The following applies: BODIPY lipid droplet fluorescence, 18-24 h; for cell number change: measured here: cell count max response, cells fed with added oleic acid. The gist of the method: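 Drosophila S3 cells loaded with oleic acid (400 uM, as added) and compounds at several concentrations; lipid droplets imaged by 488-nm laser-scanning cytometry, 500–530 nm intensity and object ratio to cell channel. Percent activity normalized to 20 uM Triacsin C.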

The mark [1] stands for this setting: measured here: lipid fluorescence (Fed channel) AC50, cells fed with added oleic acid.
The mark [2] stands for this setting: measured here: cell number channel AC50, cells fed with added oleic acid.

With `CCCn1nnnc1NCc1cccc(OC)c1`, the cell number change was -0.525%. In addition, the half-maximal activity concentration (AC50) – broadly, the midpoint of the concentration-response curve, whichever way the signal moves – under setting [1] was 6.51 µM [rising, single point]. Take `Cc1cccc(N2C(=O)c3cccc4c(N(C)CCO)ccc(c34)C2=O)c1`: the cell number change is -107%. Further, under setting [2], the AC50 is 7.31 µM [falling, partial curve]. In addition, the AC50 under setting [1] is 6.51 µM [falling, partial curve]. Regarding `C/C(CC(=O)Nc1cccc2c1CCCC2)=N\NC(=O)c1cccc2ccccc12`, the cell number change worked out at 11.7%. Moreover, under setting [2], the AC50 was 6.51 µM [rising, single point]. Consider `CC(C)C(C)NC(=O)COc1ncnc2ccccc12` (stereo not drawn), for which the cell number change came to 25.2%. Further, the AC50 under setting [2] was 0.259 µM [falling, full curve, poor fit]. For the same molecule, the concentration at half-maximal activity (AC50) under setting [1] is 23.1 µM [falling, partial curve]. With `O=C(Nc1ccc(Cl)cc1)N1CCOC12CCC1(CC2)OCCO1`, the cell number change amounted to 15.7%. For the same molecule, the half-maximal activity concentration (AC50) under setting [1] is 16.4 µM [rising, partial curve]. As for `CC(C)C(=O)Nc1ccc(C(=O)N2CCCCCC2)cc1`, the cell number change was 10.1%. The AC50 under setting [1] was 0.58 µM [falling, single point]. `Cc1ccc(/C=C(\NC(=O)c2ccccc2)C(=O)NCC2CCCO2)o1` (stereo not drawn): the cell number change amounted to 6.37%. With `Cc1ccc(-n2c3c(cc(C(=O)Nc4cccc(C)n4)c2=O)C(=O)CCC3)cc1`, the cell number change turned out to be 9.99%. Also, the AC50 under setting [1] is 5.8 µM [rising, single point]. As for `O=C(Nc1ccc(N2CCOCC2)cc1N1CCOCC1)c1ccc(Cl)cc1`, the AC50 under setting [1] is 29.1 µM [falling, single point]. Turning to `Cn1ncc(S(=O)(=O)Cc2ccccc2)c(Cl)c1=O`, the cell number change is -41.4%. Also, the AC50 under setting [2] is 16.4 µM [falling, single point]. Moreover, the AC50 under setting [1] is 18.4 µM [falling, partial curve, poor fit]. Regarding `CC(=O)c1nc(N2C(=O)CC(Cc3ccccc3)C2=O)sc1C` (stereo not drawn), the cell number change was -18.8%. The AC50 under setting [1] was 2.91 µM [falling, single point]. For `O=C1CC(N2CCN(c3ccccc3Cl)CC2)C(=O)N1c1ccc(F)cc1` (stereo not drawn), the cell number change is 86.4%. Further, the AC50 under setting [2] is 29.1 µM [rising, single point]. The AC50 under setting [1] is 3.26 µM [rising, full curve, poor fit].

`COc1ccc(S(=O)(=O)NCc2ccc3c(c2)OCO3)cc1OC`: the cell number change stood at 41.4%. In the case of `Cc1ccc(-c2nc3ccsc3c(=O)o2)cc1`, the cell number change was -35.5%. Also, the AC50 under setting [2] was 8.2 µM [falling, partial curve]. In addition, under setting [1], the AC50 is 2.06 µM [falling, partial curve, poor fit]. As for `Cc1nn(Cc2c(Cl)cccc2Cl)c(C)c1NC(=O)CCCn1nc(C)c([N+](=O)[O-])c1C`, the cell number change was found to be 98%. In addition, under setting [2], the AC50 was 18.4 µM [rising, single point]. The AC50 under setting [1] was 0.517 µM [rising, single point].

As for `Nc1[nH]nc2nc(NCc3ccccc3)c3c(c12)CCN(Cc1ccccc1)C3`, the cell number change was -23.5%. Further, the AC50 under setting [1] is 2.06 µM [rising, single point]. Consider `CC(C)CN(C(=O)CSc1nnc(C2CC2)n1-c1ccccc1)C1CCS(=O)(=O)C1` (stereo not drawn), for which the cell number change was -5.78%. In addition, the AC50 under setting [1] is 3.66 µM [falling, single point].

`O=C(NC(Cc1c[nH]c2ccccc12)C(=O)OCC(=O)c1cccc2ccccc12)c1cccs1` (stereo not drawn): the cell number change came out at 10%. The AC50 under setting [1] is 6.51 µM [rising, partial curve, poor fit]. For `CN1CCN(C(=O)/C=C\c2ccc(Cl)cc2)CC1`, the AC50 under setting [1] is 0.00517 µM [falling, full curve, poor fit]. On to `COC(CNC(=O)c1ccc2nc3ccccc3c(=O)n2c1)OC`, for which the cell number change was -28.2%. Moreover, the AC50 under setting [2] was 3.26 µM [falling, full curve, poor fit]. On to `CN(C)c1ccc(C(C(=O)NCc2ccccc2)N(Cc2ccco2)C(=O)c2snc(C(N)=O)c2N)cc1` (stereo not drawn), for which the cell number change is -52.6%. The AC50 under setting [2] was 1.46 µM [falling, full curve]. On to `COc1ccccc1N1CCN(CCCCOc2c(OC)cccc2OC)CC1`, for which the cell number change is -1.56%. Under setting [1], the AC50 was 0.731 µM [falling, full curve, poor fit].

Regarding `O=C1C2CC=CCC2C(=O)N1c1n[nH]c(CCc2ccccc2)n1` (stereo not drawn), the cell number change amounted to 12.2%. `O=C(COC(=O)/C=C/c1ccc(OC(F)F)cc1)Nc1ccc(S(=O)(=O)N2CCCC2)cc1`: the AC50 was 0.58 µM [rising, single point] under setting [2] and 32.6 µM [falling, single point] under setting [1]. For the molecule `N#CC1(NC(=O)COC(=O)c2nccnc2N)CCCCC1`, the AC50 under setting [1] is 5.8 µM [rising, single point].

On to `CCC(C)[C@@H](NC(=O)OC(C)(C)C)c1nnc(S(=O)(=O)Cc2cccc(C)c2)o1` (stereo partly drawn), for which the cell number change was -88.9%. Also, under setting [2], the AC50 was 25.9 µM [falling, partial curve]. Further, the AC50 under setting [1] is 25.9 µM [falling, partial curve]. On to `CC(=O)OC1=Cc2c(ccc3ccc(=O)oc23)OC1(C)C`, for which the cell number change was 37.1%. The AC50 under setting [2] was 11.6 µM [rising, single point].

Take `CCC(=O)NC(=S)Nc1cccc(Cl)c1N1CCCCC1`: the cell number change turned out to be 34.2%. For the same molecule, the AC50 under setting [1] was 29.1 µM [rising, single point]. As for `c1ccc2c(Cn3ccnc3)cccc2c1`, the cell number change turned out to be 6.63%. For the same molecule, under setting [1], the AC50 is 6.51 µM [rising, single point]. As to `COc1ccccc1N1CCN(Cc2cc(=O)c(OCC(=O)NC(C)C)co2)CC1`, the cell number change was -9.07%. The AC50 under setting [1] was 25.9 µM [rising, single point].

As to `COc1cc(OC)c2c(c1)C(=O)c1cc(OC)cc(OC)c1C2=O`, the cell number change was -11.1%. Besides, the AC50 under setting [1] was 2.06 µM [rising, partial curve].

As for `Cn1c(NC(=O)C[n+]2cc(-c3ccc(Cl)c(Cl)c3)n3c2CCC3)cc(=O)n(C)c1=O`, the cell number change was -12.7%. Moreover, under setting [1], the AC50 was 3.26 µM [falling, full curve, poor fit]. As for `CCOC(=O)c1c(SCC(=O)Nc2nc(C)cs2)nc(=O)[nH]c1C`, under setting [1], the AC50 was 0.651 µM [falling, full curve]. As to `CCOC(=O)C(C)Oc1ccc(C2NC(=O)NC(C)=C2C(=O)Nc2ccccc2C)cc1` (stereo not drawn), the cell number change is -14.4%. As to `Cc1sc2ncnc(SCC(=O)N3CCCCC3)c2c1C`, the cell number change is -18.1%. Besides, the AC50 under setting [1] was 29.1 µM [falling, partial curve, poor fit]. Consider `Cc1cc(NC(=O)c2ccccc2C)no1`, for which the cell number change is 0.824%. Besides, the half-maximal activity concentration (AC50) under setting [1] was 0.103 µM [falling, full curve, poor fit]. Take `CCOC(=O)C1=C(C)N(CCCC(=O)O)C(=O)NC1c1ccc(Cl)cc1` (stereo not drawn): the cell number change turned out to be 4.49%. In addition, under setting [1], the AC50 was 0.651 µM [falling, full curve, poor fit].
